Values of other authors in patent US12728104B2, “Therapeutic methods for preventing tumor metastasis and tumor recurrence” (LUNELLA BIOTECH, INC., priority 2020, dated 2026).
At least one compound was matched to its structure with a doubt left.

Assays:
CSC tumor load = details: 200-mg/day for 2-weeks, early stage breast cancer patients; cited from earlier work
[1] = system: CSCs in cell lines derived from 8 different cancer types; details: cell lines from 8 cancer types incl. MCF7, T47D, MDA-MB-231, MCF10.DCIS.COM; cited from earlier work

## C[C@H]1c2cccc(O)c2C(=O)C2=C(O)[C@]3(O)C(=O)C(C(N)=O)=C(O)[C@@H](N(C)C)[C@@H]3[C@@H](O)[C@@H]21 [Doxycycline]
CSC tumor load
  positive response rate: ~90%
[1]
  inhibition of anchorage-independent propagation of CSCs: effectively inhibit
